Assay results published in the supplement of paper PMC10849652.
This is one part of the list.

By UniProt entry, the sequences of proteins in these tests, tags left out. Where a name states a change or a piece, a line headed by the entry shows the natural chain unless it says otherwise.
UniProt O00148, whole entry, looked up: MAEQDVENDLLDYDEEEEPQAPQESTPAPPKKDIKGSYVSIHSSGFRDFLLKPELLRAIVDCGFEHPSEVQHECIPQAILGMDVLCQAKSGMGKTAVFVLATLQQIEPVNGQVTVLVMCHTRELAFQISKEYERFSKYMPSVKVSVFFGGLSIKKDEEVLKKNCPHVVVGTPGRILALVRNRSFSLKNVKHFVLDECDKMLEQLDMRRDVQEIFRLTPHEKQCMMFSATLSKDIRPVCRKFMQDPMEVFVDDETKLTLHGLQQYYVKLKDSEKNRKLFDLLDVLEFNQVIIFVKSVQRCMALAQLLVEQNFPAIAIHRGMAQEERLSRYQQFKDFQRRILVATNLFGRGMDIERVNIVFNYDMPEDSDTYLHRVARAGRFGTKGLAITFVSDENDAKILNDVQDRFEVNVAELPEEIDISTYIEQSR
UniProt P17844: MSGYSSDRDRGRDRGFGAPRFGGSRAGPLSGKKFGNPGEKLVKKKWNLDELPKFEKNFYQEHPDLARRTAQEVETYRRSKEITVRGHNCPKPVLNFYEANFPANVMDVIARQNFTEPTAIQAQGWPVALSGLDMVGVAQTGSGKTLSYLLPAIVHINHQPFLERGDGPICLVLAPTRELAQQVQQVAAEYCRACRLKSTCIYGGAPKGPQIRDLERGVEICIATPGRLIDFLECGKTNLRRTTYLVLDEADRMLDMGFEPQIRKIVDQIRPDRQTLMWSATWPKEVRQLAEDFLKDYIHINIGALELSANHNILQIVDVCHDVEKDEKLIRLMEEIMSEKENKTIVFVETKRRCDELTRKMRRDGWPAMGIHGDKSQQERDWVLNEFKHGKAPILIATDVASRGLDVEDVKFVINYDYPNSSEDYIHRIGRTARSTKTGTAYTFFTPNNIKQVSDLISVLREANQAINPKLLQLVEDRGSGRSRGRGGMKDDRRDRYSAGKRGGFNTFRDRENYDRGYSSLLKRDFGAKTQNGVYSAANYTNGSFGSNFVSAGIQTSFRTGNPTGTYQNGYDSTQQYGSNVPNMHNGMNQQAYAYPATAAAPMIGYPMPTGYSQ
UniProt Q07973: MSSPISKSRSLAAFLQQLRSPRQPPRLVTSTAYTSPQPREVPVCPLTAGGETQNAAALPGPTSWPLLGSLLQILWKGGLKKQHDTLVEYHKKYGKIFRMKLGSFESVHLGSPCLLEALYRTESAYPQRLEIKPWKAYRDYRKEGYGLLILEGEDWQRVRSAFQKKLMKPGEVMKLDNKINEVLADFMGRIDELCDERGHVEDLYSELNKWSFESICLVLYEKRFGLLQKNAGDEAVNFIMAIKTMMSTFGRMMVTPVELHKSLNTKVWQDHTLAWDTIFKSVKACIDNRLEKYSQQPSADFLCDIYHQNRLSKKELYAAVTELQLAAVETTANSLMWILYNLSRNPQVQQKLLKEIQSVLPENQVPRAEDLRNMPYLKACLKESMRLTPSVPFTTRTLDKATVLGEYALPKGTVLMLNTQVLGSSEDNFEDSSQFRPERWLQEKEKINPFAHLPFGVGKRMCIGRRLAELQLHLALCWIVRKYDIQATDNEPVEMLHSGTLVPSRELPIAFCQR
UniProt Q92466: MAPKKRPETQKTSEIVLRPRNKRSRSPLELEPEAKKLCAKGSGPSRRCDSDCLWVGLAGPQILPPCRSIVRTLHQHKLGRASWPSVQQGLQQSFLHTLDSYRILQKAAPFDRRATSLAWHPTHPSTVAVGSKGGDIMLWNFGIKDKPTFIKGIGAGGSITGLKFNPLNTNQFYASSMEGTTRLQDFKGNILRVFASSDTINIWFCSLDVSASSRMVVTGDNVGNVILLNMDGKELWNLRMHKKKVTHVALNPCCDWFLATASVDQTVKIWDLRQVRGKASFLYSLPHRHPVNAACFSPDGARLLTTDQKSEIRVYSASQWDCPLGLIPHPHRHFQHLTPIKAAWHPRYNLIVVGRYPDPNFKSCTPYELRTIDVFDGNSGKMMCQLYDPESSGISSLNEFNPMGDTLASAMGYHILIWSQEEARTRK
UniProt O00273: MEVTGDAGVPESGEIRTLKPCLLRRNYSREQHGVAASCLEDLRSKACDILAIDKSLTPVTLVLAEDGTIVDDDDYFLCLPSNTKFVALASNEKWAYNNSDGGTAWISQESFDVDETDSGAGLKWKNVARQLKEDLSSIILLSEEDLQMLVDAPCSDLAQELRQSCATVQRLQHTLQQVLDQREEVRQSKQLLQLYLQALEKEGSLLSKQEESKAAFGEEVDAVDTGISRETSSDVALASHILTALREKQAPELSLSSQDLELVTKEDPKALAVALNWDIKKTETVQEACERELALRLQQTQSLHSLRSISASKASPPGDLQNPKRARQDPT
UniProt P27707: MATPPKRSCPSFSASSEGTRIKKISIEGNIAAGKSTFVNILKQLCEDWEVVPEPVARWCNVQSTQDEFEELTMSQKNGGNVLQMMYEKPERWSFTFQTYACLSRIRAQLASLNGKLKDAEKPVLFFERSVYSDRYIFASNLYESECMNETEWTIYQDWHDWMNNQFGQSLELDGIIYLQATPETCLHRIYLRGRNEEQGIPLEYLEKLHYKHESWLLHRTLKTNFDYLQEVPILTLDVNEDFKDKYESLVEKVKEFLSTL
UniProt Q9UJW0, whole entry, looked up: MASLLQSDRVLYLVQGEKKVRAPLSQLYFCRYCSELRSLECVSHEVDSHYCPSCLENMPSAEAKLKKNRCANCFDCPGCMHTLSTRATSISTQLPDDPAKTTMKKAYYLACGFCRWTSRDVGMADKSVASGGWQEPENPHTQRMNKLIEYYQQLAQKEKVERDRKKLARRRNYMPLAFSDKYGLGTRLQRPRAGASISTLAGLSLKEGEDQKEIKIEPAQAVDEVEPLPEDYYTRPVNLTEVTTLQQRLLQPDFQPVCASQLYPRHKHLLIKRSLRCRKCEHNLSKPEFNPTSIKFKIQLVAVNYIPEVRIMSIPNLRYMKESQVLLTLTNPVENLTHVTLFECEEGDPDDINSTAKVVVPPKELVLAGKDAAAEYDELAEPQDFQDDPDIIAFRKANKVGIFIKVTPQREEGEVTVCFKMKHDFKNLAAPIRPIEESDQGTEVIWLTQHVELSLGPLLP
UniProt P26196: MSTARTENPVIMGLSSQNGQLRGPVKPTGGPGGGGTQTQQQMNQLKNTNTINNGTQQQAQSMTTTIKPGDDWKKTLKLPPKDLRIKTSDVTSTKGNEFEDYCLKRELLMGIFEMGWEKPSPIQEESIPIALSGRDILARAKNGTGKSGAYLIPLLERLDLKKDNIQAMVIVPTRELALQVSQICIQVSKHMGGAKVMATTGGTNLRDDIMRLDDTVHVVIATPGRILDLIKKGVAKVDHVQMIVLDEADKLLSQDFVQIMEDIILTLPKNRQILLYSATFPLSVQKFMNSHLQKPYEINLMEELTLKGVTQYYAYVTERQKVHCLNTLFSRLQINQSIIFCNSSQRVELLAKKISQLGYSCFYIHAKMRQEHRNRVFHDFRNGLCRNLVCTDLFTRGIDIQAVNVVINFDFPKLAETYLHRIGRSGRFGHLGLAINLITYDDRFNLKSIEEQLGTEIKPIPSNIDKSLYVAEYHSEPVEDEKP
UniProt P32321: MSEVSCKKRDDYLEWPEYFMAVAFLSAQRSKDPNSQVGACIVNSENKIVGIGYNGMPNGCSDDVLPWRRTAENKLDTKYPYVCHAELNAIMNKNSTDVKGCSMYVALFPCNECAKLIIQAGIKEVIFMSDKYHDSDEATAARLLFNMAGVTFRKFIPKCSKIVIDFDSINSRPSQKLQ
UniProt Q16850: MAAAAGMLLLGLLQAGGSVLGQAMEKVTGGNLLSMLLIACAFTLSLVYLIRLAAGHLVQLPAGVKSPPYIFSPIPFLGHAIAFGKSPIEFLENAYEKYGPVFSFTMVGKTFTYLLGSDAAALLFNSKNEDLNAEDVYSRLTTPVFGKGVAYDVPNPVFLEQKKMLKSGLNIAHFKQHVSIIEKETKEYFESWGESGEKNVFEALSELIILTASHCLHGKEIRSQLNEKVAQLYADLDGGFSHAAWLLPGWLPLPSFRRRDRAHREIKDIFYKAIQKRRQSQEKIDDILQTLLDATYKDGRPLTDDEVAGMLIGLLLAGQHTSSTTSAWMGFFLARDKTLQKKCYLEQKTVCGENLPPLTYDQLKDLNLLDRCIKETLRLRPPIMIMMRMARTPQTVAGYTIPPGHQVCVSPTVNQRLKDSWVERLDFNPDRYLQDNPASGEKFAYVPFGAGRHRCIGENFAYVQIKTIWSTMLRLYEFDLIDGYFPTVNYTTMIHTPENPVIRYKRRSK
UniProt Q8NEL9: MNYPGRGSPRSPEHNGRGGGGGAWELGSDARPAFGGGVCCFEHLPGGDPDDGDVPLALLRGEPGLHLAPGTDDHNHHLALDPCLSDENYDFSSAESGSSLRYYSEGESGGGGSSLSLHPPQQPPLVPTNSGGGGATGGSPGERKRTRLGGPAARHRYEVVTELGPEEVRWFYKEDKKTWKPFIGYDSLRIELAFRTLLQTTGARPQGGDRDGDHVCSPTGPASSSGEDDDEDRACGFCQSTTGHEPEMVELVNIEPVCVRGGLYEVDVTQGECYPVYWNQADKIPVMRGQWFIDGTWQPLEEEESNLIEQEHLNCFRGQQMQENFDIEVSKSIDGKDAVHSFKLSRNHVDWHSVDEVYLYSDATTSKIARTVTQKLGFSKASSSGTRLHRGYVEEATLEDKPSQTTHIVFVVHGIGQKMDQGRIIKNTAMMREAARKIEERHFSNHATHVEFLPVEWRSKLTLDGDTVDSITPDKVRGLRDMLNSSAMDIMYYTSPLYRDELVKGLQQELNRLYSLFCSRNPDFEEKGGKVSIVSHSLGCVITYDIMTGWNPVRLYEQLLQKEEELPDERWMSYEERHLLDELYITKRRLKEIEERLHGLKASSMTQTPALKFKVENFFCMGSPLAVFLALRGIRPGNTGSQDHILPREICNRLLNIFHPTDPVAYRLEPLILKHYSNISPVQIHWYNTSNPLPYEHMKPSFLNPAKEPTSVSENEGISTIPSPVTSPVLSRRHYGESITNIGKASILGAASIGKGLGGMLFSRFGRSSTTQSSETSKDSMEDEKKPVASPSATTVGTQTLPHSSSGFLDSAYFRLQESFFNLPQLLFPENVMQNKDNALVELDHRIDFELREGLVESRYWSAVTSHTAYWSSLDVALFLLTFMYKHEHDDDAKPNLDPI
UniProt O43583: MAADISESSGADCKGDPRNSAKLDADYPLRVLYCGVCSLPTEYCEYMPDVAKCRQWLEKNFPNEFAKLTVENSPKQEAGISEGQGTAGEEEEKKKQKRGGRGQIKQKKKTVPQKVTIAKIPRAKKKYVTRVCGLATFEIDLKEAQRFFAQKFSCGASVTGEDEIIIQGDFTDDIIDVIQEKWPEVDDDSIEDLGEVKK
UniProt Q96C86: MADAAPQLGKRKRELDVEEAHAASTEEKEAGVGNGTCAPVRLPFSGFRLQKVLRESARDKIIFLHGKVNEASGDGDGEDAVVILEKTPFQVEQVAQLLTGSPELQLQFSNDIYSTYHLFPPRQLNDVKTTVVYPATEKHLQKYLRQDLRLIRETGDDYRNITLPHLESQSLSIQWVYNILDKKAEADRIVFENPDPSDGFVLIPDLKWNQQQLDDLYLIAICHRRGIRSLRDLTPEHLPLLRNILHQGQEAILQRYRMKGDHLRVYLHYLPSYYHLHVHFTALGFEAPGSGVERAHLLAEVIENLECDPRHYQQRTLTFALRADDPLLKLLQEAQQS
UniProt Q92841: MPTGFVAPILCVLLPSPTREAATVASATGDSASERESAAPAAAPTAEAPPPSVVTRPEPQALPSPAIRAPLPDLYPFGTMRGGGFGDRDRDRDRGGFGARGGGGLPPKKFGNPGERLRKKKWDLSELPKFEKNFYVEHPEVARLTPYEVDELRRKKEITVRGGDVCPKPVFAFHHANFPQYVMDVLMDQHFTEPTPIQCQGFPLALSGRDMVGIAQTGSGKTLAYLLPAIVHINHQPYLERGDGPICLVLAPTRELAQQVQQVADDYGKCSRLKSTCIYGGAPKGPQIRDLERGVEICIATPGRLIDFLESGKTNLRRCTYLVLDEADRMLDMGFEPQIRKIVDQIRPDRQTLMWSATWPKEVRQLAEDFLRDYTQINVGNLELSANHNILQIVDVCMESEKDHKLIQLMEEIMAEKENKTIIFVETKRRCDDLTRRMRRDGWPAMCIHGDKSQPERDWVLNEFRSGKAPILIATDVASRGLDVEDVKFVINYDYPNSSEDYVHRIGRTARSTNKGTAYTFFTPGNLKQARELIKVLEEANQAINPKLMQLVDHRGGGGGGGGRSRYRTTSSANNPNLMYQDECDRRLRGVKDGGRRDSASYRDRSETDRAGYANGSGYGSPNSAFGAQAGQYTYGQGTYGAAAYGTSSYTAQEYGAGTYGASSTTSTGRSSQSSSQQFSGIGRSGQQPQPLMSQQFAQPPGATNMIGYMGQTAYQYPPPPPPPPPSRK

What was measured:
Assay in all cases: log2 fold change, soluble protein after heating vs DMSO (PISA); higher = thermal stabilisation; K562 lysate, 10 uM; active = over 0.2 and 3.5 SD of the protein, either way, in both replicates (recomputed)
alvocidib = compound: CN1CC[C@H](c2c(O)cc(O)c3c(=O)cc(-c4ccccc4Cl)oc23)[C@H](O)C1 [alvocidib]
Outline: (§1)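 Pellets of K562 cells were dounce-homogenised in PBS pH 7.4 with 1 mM MgCl2, and the crude extract was held at 1 mg/mL protein for a 30 min treatment with 10 μM compound. Aliquots were heated for 3 min over 48°C-58°C and pooled before NP-40 was added to 0.5% at 4°C. The supernatant from 21,000xg for 90 min was quantified by TMTpro 16plex LC-MS/MS with channel sums equalised. Values are reported from duplicates as log-two fold change in thermal stability relative to solvent controls.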

Tubastatin A = compound: CN1CCc2c(c3ccccc3n2Cc2ccc(C(=O)NO)cc2)C1 [Tubastatin A]
Outline: as §1

[1] = compound: CNC(=O)C1=CC=CC=C1NC2=NC(=NC=C2Cl)NC3=C(C=C(C=C3)N4CCOCC4)OC
Outline: as §1

defactinib = compound: CNC(=O)c1ccc(Nc2ncc(C(F)(F)F)c(NCc3nccnc3N(C)S(C)(=O)=O)n2)cc1 [defactinib]
Outline: as §1

[2] = compound: CNc1nc(-c2ccc3c(N)n[nH]c3c2)cc(N2C[C@@H](C(=O)NC3CCCCC3)CC[C@H]2C)n1
Outline: as §1

encorafenib = compound: COC(=O)N[C@@H](C)CNc1nccc(-c2cn(C(C)C)nc2-c2cc(Cl)cc(NS(C)(=O)=O)c2F)n1 [encorafenib]
Outline: as §1

[3] = compound: COC(=O)[C@H](CCSC)NC(=O)C1=C(C=C(C=C1)NC[C@H](CS)N)C2=CC=CC=C2
Outline: as §1

alisertib = compound: COc1cc(Nc2ncc3c(n2)-c2ccc(Cl)cc2C(c2c(F)cccc2OC)=NC3)ccc1C(=O)O [alisertib]
Outline: as §1

[4] = compound: COc1cc2nc(-c3cc(F)ccc3O)nc(N[C@@H]3CNC[C@H]3C(C)(C)O)c2cc1OC
Outline: as §1

gefitinib = compound: COc1cc2ncnc(Nc3ccc(F)c(Cl)c3)c2cc1OCCCN1CCOCC1 [gefitinib]
Outline: as §1

lapatinib = compound: CS(=O)(=O)CCNCc1ccc(-c2ccc3ncnc(Nc4ccc(OCc5cccc(F)c5)c(Cl)c4)c3c2)o1 [lapatinib]
Outline: as §1

pictilisib = compound: CS(=O)(=O)N1CCN(Cc2cc3nc(-c4cccc5[nH]ncc45)nc(N4CCOCC4)c3s2)CC1 [pictilisib]
Outline: as §1

crizotinib = compound: C[C@@H](Oc1cc(-c2cnn(C3CCNCC3)c2)cnc1N)c1c(Cl)ccc(F)c1Cl [crizotinib]
Outline: as §1

[5] = compound: C[C@H](C1=CC=C(C=C1)C(=O)NC2=C3C=CNC3=NC=C2)N
Outline: as §1

duvelisib = compound: C[C@H](Nc1ncnc2nc[nH]c12)c1cc2cccc(Cl)c2c(=O)n1-c1ccccc1 [duvelisib]
Outline: as §1

gandotinib = compound: Cc1cc(Nc2cc(CN3CCOCC3)c3nc(C)c(Cc4ccc(Cl)cc4F)n3n2)n[nH]1 [gandotinib]
Outline: as §1

tozasertib = compound: Cc1cc(Nc2cc(N3CCN(C)CC3)nc(Sc3ccc(NC(=O)C4CC4)cc3)n2)n[nH]1 [tozasertib]
Outline: as §1

doramapimod = compound: Cc1ccc(-n2nc(C(C)(C)C)cc2NC(=O)Nc2ccc(OCCN3CCOCC3)c3ccccc23)cc1 [doramapimod]
Outline: as §1

bafetinib = compound: Cc1ccc(NC(=O)c2ccc(CN3CC[C@H](N(C)C)C3)c(C(F)(F)F)c2)cc1Nc1nccc(-c2cncnc2)n1 [bafetinib]
Outline: as §1

[6] = compound: Cc1cccc(CC(=O)N2CCc3c2ccc(-c2cn(C)c4ncnc(N)c24)c3F)n1
Outline: as §1

Measured: log2 fold change

DDX39A (UniProt O00148)
inactive: alvocidib -0.017 | Tubastatin A -0.171 | [1] -0.006 | defactinib 0.003 | [2] -0.025 | encorafenib 0.001 | [3] 0.163 | alisertib -0.026 | [4] 0.004 | gefitinib 0.009 | lapatinib -0.004 | pictilisib 0.021 | crizotinib 0.006 | [5] -0.022 | duvelisib 0.004 | gandotinib -0.104 | tozasertib -0.008 | doramapimod -0.046 | bafetinib -0.004 | [6] 0.093

DDX5 (UniProt P17844)
inactive: alvocidib 0.006 | Tubastatin A 0.006 | [1] 0.017 | defactinib -0.002 | [2] -0.02 | encorafenib 0.034 | [3] 0.02 | alisertib 0.024 | [4] -0.01 | gefitinib -0.001 | lapatinib -0.007 | pictilisib 0 | crizotinib -0.004 | [5] 0 | duvelisib -0.012 | gandotinib -0.117 | tozasertib 0.027 | doramapimod 0.083 | bafetinib 0.001 | [6] -0.02

CYP24A1 (UniProt Q07973)
inactive: alvocidib -0.258 | Tubastatin A 0.163 | [1] -0.021 | defactinib -0.158 | [2] 0.226 | encorafenib 0.011 | [3] 0.043 | alisertib 0.049 | [4] 0.13 | gefitinib -0.05 | lapatinib -0.099 | pictilisib 0.015 | crizotinib -0.289 | duvelisib 0.077 | gandotinib 0.235 | tozasertib -0.02 | doramapimod 0.006 | bafetinib -0.209 | [6] 0.325
active: [5] -0.462

Two records picked at random from the list so far:
DDX5 (UniProt P17844)
inactive: alvocidib 0.006 | Tubastatin A 0.006 | [1] 0.017 | defactinib -0.002 | [2] -0.02 | encorafenib 0.034 | [3] 0.02 | alisertib 0.024 | [4] -0.01 | gefitinib -0.001 | lapatinib -0.007 | pictilisib 0 | crizotinib -0.004 | [5] 0 | duvelisib -0.012 | gandotinib -0.117 | tozasertib 0.027 | doramapimod 0.083 | bafetinib 0.001 | [6] -0.02

DDX39A (UniProt O00148)
inactive: alvocidib -0.017 | Tubastatin A -0.171 | [1] -0.006 | defactinib 0.003 | [2] -0.025 | encorafenib 0.001 | [3] 0.163 | alisertib -0.026 | [4] 0.004 | gefitinib 0.009 | lapatinib -0.004 | pictilisib 0.021 | crizotinib 0.006 | [5] -0.022 | duvelisib 0.004 | gandotinib -0.104 | tozasertib -0.008 | doramapimod -0.046 | bafetinib -0.004 | [6] 0.093

(further entries)

DDB2 (UniProt Q92466)
active: defactinib 0.262
inactive: alvocidib 0 | Tubastatin A 0.06 | [1] 0.041 | [2] 0.069 | encorafenib 0.079 | [3] -0.065 | alisertib 0.045 | [4] 0.055 | gefitinib -0.131 | lapatinib -0.03 | pictilisib -0.025 | crizotinib -0.025 | [5] -0.01 | duvelisib 0.014 | gandotinib 0.046 | tozasertib -0.026 | doramapimod 0.05 | bafetinib 0.023 | [6] 0.008

DCP2 (UniProt Q8IU60)
inactive: alvocidib 0.023 | Tubastatin A -0.195 | [1] -0.013 | defactinib -0.045 | [2] 0 | encorafenib 0 | [3] -0.117 | alisertib -0.02 | [4] 0 | gefitinib 0.041 | lapatinib -0.027 | pictilisib 0.011 | crizotinib 0.038 | [5] 0.021 | duvelisib -0.011 | gandotinib -0.148 | tozasertib 0.018 | doramapimod 0.01 | bafetinib -0.062 | [6] -0.041

DFFA (UniProt O00273)
inactive: alvocidib 0.007 | Tubastatin A 0.016 | [1] 0.023 | defactinib 0.014 | [2] 0.018 | encorafenib -0.006 | [3] -0.009 | alisertib 0.01 | [4] -0.016 | gefitinib -0.053 | lapatinib 0.021 | pictilisib 0.007 | crizotinib 0.041 | [5] -0.001 | duvelisib -0.023 | gandotinib 0.046 | tozasertib -0.02 | doramapimod -0.015 | bafetinib 0.045 | [6] -0.029

DCK (UniProt P27707)
inactive: alvocidib 0.021 | Tubastatin A -0.007 | [1] 0.052 | defactinib -0.02 | [2] 0.038 | encorafenib -0.049 | [3] 0.041 | alisertib -0.025 | [4] -0.021 | gefitinib -0.011 | lapatinib -0.002 | pictilisib 0.168 | crizotinib 0.01 | [5] 0.115 | duvelisib 0.016 | gandotinib -0.038 | tozasertib -0.034 | doramapimod -0.033 | bafetinib 0.104 | [6] -0.09

DCTN4 (UniProt Q9UJW0)
inactive: alvocidib -0.014 | Tubastatin A 0.025 | [1] 0.012 | defactinib 0.022 | [2] 0.024 | encorafenib 0.024 | [3] -0.032 | alisertib -0.002 | [4] 0.005 | gefitinib -0.044 | lapatinib 0.008 | pictilisib 0.022 | crizotinib 0.018 | [5] -0.009 | duvelisib 0.046 | gandotinib 0.033 | tozasertib 0.048 | doramapimod 0.043 | bafetinib 0.029 | [6] 0

DDX6 (UniProt P26196)
inactive: alvocidib 0.006 | Tubastatin A -0.007 | [1] 0.014 | defactinib -0.008 | [2] 0.02 | encorafenib 0.001 | [3] 0.005 | alisertib -0.012 | [4] -0.005 | gefitinib 0.002 | lapatinib 0.003 | pictilisib -0.015 | crizotinib 0.003 | [5] -0.005 | duvelisib 0.007 | gandotinib -0.011 | tozasertib -0.002 | doramapimod 0.002 | bafetinib 0.007 | [6] 0.006

DCTD isoform 2 (UniProt P32321)
inactive: alvocidib 0.013 | Tubastatin A -0.009 | [1] 0.022 | defactinib 0.01 | [2] -0.003 | encorafenib -0.024 | [3] -0.017 | alisertib 0.026 | [4] -0.002 | gefitinib -0.006 | lapatinib -0.015 | pictilisib -0.046 | crizotinib 0.003 | [5] -0.021 | duvelisib -0.018 | gandotinib 0.029 | tozasertib -0.035 | doramapimod 0.019 | bafetinib 0.011 | [6] -0.036

CYP51A1 (UniProt Q16850)
active: gandotinib 0.447 | bafetinib 0.385
inactive: alvocidib -0.017 | Tubastatin A 0.007 | [1] 0.005 | defactinib -0.001 | [2] 0.023 | encorafenib -0.019 | [3] 0.09 | alisertib 0.019 | [4] 0.053 | gefitinib 0 | lapatinib 0.105 | pictilisib 0.024 | crizotinib 0.023 | [5] -0.036 | duvelisib -0.065 | tozasertib 0 | doramapimod 0.089 | [6] 0.045

DDHD1 (UniProt Q8NEL9)
inactive: alvocidib -0.046 | Tubastatin A -0.111 | [1] -0.05 | defactinib -0.067 | [2] 0.001 | encorafenib 0.051 | [3] -0.059 | alisertib 0.055 | [4] 0.016 | gefitinib -0.068 | lapatinib -0.06 | pictilisib 0.096 | crizotinib -0.116 | [5] -0.019 | duvelisib -0.045 | gandotinib 0.077 | tozasertib 0.052 | doramapimod 0.031 | bafetinib 0.015 | [6] 0.054

DENR (UniProt O43583)
inactive: alvocidib 0.01 | Tubastatin A 0.038 | [1] -0.027 | defactinib 0.028 | [2] -0.013 | encorafenib -0.027 | [3] -0.002 | alisertib 0.018 | [4] -0.008 | gefitinib -0.021 | lapatinib -0.02 | pictilisib 0.02 | crizotinib 0.083 | [5] 0.035 | duvelisib 0.054 | gandotinib -0.015 | tozasertib -0.018 | doramapimod -0.066 | bafetinib 0.033 | [6] -0.047

DCPS (UniProt Q96C86)
inactive: alvocidib 0.008 | Tubastatin A 0.026 | [1] 0.014 | defactinib -0.015 | [2] -0.012 | encorafenib -0.065 | [3] 0.074 | alisertib -0.031 | [4] 0.024 | gefitinib -0.026 | lapatinib -0.002 | pictilisib -0.055 | crizotinib -0.023 | [5] -0.029 | duvelisib 0.007 | gandotinib 0.032 | tozasertib -0.034 | doramapimod 0.002 | bafetinib -0.036 | [6] 0

DDX17 (UniProt Q92841)
inactive: alvocidib -0.021 | Tubastatin A -0.061 | [1] 0.015 | defactinib -0.001 | [2] -0.019 | encorafenib -0.009 | [3] 0.006 | alisertib 0.012 | [4] -0.008 | gefitinib -0.016 | lapatinib -0.009 | pictilisib -0.021 | crizotinib 0.038 | [5] -0.054 | duvelisib -0.015 | gandotinib 0.012 | tozasertib 0.005 | doramapimod 0.058 | bafetinib -0.001 | [6] 0.082
